These are yes or no findings as the source states them, for the method shown. Binding seen in cells or lysates may run through a third protein. Some results given as binding are weak or reduced against the parent protein; the word gives no strength. Sequences can lack the tags named with a protein.

Protein sequences, listed by entry. Tags and fused reporters are not part of them.
UniProt Q9SIV5: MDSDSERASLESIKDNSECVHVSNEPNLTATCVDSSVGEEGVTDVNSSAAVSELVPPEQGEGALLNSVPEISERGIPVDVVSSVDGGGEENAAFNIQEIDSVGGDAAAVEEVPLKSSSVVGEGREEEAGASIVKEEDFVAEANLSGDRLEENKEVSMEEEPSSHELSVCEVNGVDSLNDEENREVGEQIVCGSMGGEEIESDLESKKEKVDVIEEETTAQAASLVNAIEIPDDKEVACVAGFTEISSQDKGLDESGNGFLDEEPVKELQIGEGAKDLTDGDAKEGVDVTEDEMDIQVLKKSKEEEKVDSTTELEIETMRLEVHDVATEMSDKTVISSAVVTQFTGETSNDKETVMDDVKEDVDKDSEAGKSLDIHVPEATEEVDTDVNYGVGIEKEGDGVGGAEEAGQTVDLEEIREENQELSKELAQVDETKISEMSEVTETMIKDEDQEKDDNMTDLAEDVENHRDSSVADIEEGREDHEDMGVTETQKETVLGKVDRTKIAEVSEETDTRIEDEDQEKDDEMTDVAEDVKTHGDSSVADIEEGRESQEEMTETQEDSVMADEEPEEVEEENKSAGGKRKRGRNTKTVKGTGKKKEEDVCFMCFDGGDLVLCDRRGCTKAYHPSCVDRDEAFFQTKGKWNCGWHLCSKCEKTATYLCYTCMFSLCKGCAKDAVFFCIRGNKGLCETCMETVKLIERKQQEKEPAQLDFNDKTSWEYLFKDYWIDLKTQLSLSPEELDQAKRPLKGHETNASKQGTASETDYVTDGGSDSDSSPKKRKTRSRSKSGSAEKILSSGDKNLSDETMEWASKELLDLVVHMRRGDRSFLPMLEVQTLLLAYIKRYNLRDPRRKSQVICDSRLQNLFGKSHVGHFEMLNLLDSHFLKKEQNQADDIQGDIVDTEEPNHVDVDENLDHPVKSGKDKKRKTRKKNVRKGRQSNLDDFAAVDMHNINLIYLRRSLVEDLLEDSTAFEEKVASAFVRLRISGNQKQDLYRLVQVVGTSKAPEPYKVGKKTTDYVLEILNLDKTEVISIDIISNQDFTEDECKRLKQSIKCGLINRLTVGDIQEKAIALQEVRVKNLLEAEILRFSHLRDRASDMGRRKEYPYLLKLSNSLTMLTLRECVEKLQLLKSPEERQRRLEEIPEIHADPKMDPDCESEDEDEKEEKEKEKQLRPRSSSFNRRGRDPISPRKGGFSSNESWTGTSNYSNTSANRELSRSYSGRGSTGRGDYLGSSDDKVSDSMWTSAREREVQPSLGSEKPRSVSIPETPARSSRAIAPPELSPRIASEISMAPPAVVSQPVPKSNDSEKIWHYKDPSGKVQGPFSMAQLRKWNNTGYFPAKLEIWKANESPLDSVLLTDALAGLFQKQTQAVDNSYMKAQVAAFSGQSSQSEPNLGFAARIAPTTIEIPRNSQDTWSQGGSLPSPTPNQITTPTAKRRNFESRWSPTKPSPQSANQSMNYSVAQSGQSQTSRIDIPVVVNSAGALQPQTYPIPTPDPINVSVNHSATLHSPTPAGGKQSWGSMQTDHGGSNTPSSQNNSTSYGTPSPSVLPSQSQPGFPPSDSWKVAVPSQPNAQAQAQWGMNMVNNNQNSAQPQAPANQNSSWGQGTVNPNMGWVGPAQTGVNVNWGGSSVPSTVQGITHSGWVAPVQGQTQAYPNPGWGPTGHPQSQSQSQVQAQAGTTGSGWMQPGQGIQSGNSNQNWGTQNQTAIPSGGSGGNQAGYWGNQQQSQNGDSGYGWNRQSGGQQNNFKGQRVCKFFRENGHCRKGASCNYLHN

We go through two molecules from paper PMC4351826.

The target of test [1] is T1, DRB2-Cmyc (Arabidopsis thaliana) (UniProt Q9SKN2).
T1 sequence: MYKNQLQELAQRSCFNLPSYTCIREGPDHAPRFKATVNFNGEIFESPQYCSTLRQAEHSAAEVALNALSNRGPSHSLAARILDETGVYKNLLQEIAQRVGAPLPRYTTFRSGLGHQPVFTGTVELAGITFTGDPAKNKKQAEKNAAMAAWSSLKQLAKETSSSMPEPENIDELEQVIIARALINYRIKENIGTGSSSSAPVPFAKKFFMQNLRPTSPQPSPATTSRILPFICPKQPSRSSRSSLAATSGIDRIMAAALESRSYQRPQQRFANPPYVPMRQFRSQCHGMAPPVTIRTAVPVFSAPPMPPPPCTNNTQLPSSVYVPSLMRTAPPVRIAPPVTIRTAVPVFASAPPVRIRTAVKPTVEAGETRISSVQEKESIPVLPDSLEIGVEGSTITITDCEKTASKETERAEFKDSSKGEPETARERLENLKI
The experiment in a line: co-IP; Cmyc and Flag IPs from first generation plants of DRB2-Cmyc crossed with NRPD1-Flag or NRPE1-Flag; western blot.

Test [2] has as its target T2, DRB2-FlagHA (Arabidopsis thaliana) (UniProt Q9SKN2).
T2 sequence: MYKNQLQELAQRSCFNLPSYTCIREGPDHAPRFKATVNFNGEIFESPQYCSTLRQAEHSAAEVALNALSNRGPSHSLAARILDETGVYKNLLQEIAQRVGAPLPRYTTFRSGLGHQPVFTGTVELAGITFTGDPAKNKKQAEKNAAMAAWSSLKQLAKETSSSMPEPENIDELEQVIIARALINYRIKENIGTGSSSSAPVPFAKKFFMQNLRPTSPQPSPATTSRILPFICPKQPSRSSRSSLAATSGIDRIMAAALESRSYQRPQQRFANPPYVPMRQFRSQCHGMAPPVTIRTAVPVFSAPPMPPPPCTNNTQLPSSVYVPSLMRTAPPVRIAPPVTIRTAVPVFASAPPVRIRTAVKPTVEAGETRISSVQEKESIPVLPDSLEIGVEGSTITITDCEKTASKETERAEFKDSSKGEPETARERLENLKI
The experiment in a line: co-IP; DRB2-FlagHA (or NERD-FlagHA) immunoprecipitated on anti Flag magnetic beads, beads then challenged with DRB2-Cmyc extracts; eluate blotted with Cmyc antibody.

Test [3] has as its target NERD-FlagHA (Arabidopsis thaliana) (UniProt Q9SIV5). Described as above.

B1: NRPD1-Flag (protein, UniProt Q9LQ02 1-1453)
chain: MEDDCEELQVPVGTLTSIGFSISNNNDRDKMSVLEVEAPNQVTDSRLGLPNPDSVCRTCGSKDRKVCEGHFGVINFAYSIINPYFLKEVAALLNKICPGCKYIRKKQFQITEDQPERCRYCTLNTGYPLMKFRVTTKEVFRRSGIVVEVNEESLMKLKKRGVLTLPPDYWSFLPQDSNIDESCLKPTRRIITHAQVYALLLGIDQRLIKKDIPMFNSLGLTSFPVTPNGYRVTEIVHQFNGARLIFDERTRIYKKLVGFEGNTLELSSRVMECMQYSRLFSETVSSSKDSANPYQKKSDTPKLCGLRFMKDVLLGKRSDHTFRTVVVGDPSLKLNEIGIPESIAKRLQVSEHLNQCNKERLVTSFVPTLLDNKEMHVRRGDRLVAIQVNDLQTGDKIFRSLMDGDTVLMNRPPSIHQHSLIAMTVRILPTTSVVSLNPICCLPFRGDFDGDCLHGYVPQSIQAKVELDELVALDKQLINRQNGRNLLSLGQDSLTAAYLVNVEKNCYLNRAQMQQLQMYCPFQLPPPAIIKASPSSTEPQWTGMQLFGMLFPPGFDYTYPLNNVVVSNGELLSFSEGSAWLRDGEGNFIERLLKHDKGKVLDIIYSAQEMLSQWLLMRGLSVSLADLYLSSDLQSRKNLTEEISYGLREAEQVCNKQQLMVESWRDFLAVNGEDKEEDSVSDLARFCYERQKSATLSELAVSAFKDAYRDVQALAYRYGDQSNSFLIMSKAGSKGNIGKLVQHSMCIGLQNSAVSLSFGFPRELTCAAWNDPNSPLRGAKGKDSTTTESYVPYGVIENSFLTGLNPLESFVHSVTSRDSSFSGNADLPGTLSRRLMFFMRDIYAAYDGTVRNSFGNQLVQFTYETDGPVEDITGEALGSLSACALSEAAYSALDQPISLLETSPLLNLKNVLECGSKKGQREQTMSLYLSEYLSKKKHGFEYGSLEIKNHLEKLSFSEIVSTSMIIFSPSSNTKVPLSPWVCHFHISEKVLKRKQLSAESVVSSLNEQYKSRNRELKLDIVDLDIQNTNHCSSDDQAMKDDNVCITVTVVEASKHSVLELDAIRLVLIPFLLDSPVKGDQGIKKVNILWTDRPKAPKRNGNHLAGELYLKVTMYGDRGKRNCWTALLETCLPIMDMIDWGRSHPDNIRQCCSVYGIDAGRSIFVANLESAVSDTGKEILREHLLLVADSLSVTGEFVALNAKGWSKQRQVESTPAPFTQACFSSPSQCFLKAAKEGVRDDLQGSIDALAWGKVPGFGTGDQFEIIISPKVHGFTTPVDVYDLLSSTKTMRRTNSAPKSDKATVQPFGLLHSAFLKDIKVLDGKGIPMSLLRTIFTWKNIELLSQSLKRILHSYEINELLNERDEGLVKMVLQLHPNSVEKIGPGVKGIRVAKSKHGDSCCFEVVRIDGTFEDFSYHKCVLGATKIIAPKKMNFYKSKYLKNGTLESGGFSENP
Take B1: the binding entry in test [1] is “no binding”.

B2: DRB2-Cmyc (protein, UniProt Q9SKN2 1-434)
chain: MYKNQLQELAQRSCFNLPSYTCIREGPDHAPRFKATVNFNGEIFESPQYCSTLRQAEHSAAEVALNALSNRGPSHSLAARILDETGVYKNLLQEIAQRVGAPLPRYTTFRSGLGHQPVFTGTVELAGITFTGDPAKNKKQAEKNAAMAAWSSLKQLAKETSSSMPEPENIDELEQVIIARALINYRIKENIGTGSSSSAPVPFAKKFFMQNLRPTSPQPSPATTSRILPFICPKQPSRSSRSSLAATSGIDRIMAAALESRSYQRPQQRFANPPYVPMRQFRSQCHGMAPPVTIRTAVPVFSAPPMPPPPCTNNTQLPSSVYVPSLMRTAPPVRIAPPVTIRTAVPVFASAPPVRIRTAVKPTVEAGETRISSVQEKESIPVLPDSLEIGVEGSTITITDCEKTASKETERAEFKDSSKGEPETARERLENLKI
As to B2, the values for the binding entry in test [2] and in test [3] were “binds” and “no binding”, respectively.
